Results are given in words; binding and its absence hold for the method and conditions named. Binding seen in cells or lysates may run through a third protein. Here binding means that the protein was enriched with, or labelled near, the bait; the list need not be complete. Sequences can lack the tags named with a protein.
Target: T1, mouse CD9-GFP expressed in HEK293T/17 cells (mouse) (UniProt P40240)
T1 sequence: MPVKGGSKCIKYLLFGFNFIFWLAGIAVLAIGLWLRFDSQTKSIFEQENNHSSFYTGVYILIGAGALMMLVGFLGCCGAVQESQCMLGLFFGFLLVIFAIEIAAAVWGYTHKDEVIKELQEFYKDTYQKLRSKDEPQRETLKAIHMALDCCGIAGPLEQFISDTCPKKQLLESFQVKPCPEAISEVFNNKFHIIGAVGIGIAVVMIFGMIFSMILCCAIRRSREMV
Experiment: affinity purification with mass spectrometry; anti-GFP co-immunoprecipitates from co-transfected HEK293T/17 cells digested on the beads with trypsin; LC-MS/MS (timsTOF Pro), search against the Mus musculus database

B1: mouse Juno expressed in HEK293T/17 cells (receptor, UniProt Q9EQF4 20-221)
chain: GDKLLSVCMNSKRHKQEPGPEDELYQECRPWEDNACCTRSTSWEAHLEEPLLFNFSMMHCGLLTPACRKHFIQAICFHECSPNLGPWIQPVVPNGQEEQRVWGVPLCQEDCEDWWRACHSSLTCKSNWLHGWDWSEEKKHCPAHEPCLPFSYHFPTPDDLCEKIWNNTFKASPERRNSGRCLQKWFEPTLSNPNVEVALHFA
For B1, the binding was “binds”.

— PMC10450504
